In article PMC3192746:
No constants are given. Whether binding was seen depends on the method and setting. Binding seen in cells or lysates may run through a third protein.

Protein sequences, listed by entry. Tags and fused reporters are not part of them. Residues count along the entry.
UniProt Q10589, residues 1-161: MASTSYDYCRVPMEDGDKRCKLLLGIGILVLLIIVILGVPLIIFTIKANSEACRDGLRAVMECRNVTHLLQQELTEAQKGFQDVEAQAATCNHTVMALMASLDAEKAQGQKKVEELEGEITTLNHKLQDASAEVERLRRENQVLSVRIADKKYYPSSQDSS
UniProt Q77376: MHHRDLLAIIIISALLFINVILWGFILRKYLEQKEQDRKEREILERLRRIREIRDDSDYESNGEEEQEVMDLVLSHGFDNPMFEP

Target: Human tetherin with an HA tag at the N-terminus (HA-tetherin) (human) (UniProt Q10589)
Assay: co-IP; 293T cells co-transfected with HA-tetherin (500 ng) and Vpu-FLAG plasmids; lysates 24 h after transfection; IP with anti-HA MicroBeads (μMACS HA isolation kit); Western blot with anti-FLAG and anti-tetherin

Question: Which binding does the source give for “group O Vpu-FLAG (ANT70) (from UniProt Q77376 1-85)” here?
Answer: The binding was “no binding”.
